PubChem BioAssay AID1259254, NCATS – 2017
This is a random part of about 59,000 reagents. About 1,550 of them (2.6%) count as active. 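G2 share is only a proxy for re-replication; each gene was hit by three separate siRNAs, and active genes were retested.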 Raw values are not corrected between plates. Entries without a mark were called inactive. The numbers tell different reagents against one gene apart. The record does not give: the amount of reagent.

- Test: 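Finding genes that stop cells copying their DNA twice in one cycle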 (primary screen)
- System: human HCT116 colorectal cancer cells
- Knock-down reagent: single siRNA against human genes
- Timing: 3 days
- Measurement: 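Imaged Hoechst DNA stain sorts each cell into a cycle phase by DNA amount; per plate, G2 fraction set to 0% for non-targeting and 100% for GMNN siRNA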
- Scale: G2 robust z-score and G2 cells, % of GMNN control: higher = more G2 cells, more excess DNA replication; raw share of cells in G2: higher = larger share of cells with G2 DNA content
- Hit rule: 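Active siRNAs have a G2 robust z of 5 or more median absolute deviations over the median, which in these data means about 38% or higher of GMNN control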

no.	gene knocked down	siRNA no.	G2 robust z-score	G2 cells, % of GMNN control	raw share of cells in G2 (%)
1	MTG1	1	4.7	36	20.4
2	MTG1	2	-0.34	0.572	4.7
3	MTG1	3	0.276	4.91	7.95
4	LOC643936 (retired record)	1	-0.497	-0.532	3.08
5	LOC643936 (retired record)	2	0.392	5.72	4.81
6	LOC643936 (retired record)	3	0.307	5.13	5.59
7	PPP3CC	1	8.48 (active)	62.7	25.2
8	PPP3CC	2	-1.3	-6.21	2.43
9	PPP3CC	3	0.201	4.38	4.82
10	TAMM41	1	-0.838	-2.93	3.07
11	TAMM41	2	3.32	26.4	11.5
12	TAMM41	3	0.16	4.09	4.06
13	CSMD2	1	-0.614	-1.35	3.55
14	CSMD2	2	1.61	14.3	7.59
15	CSMD2	3	0.0223	3.12	2.73
16	ARMC8	1	1.22	11.6	8.77
17	ARMC8	2	2.54	20.9	13
18	ARMC8	3	1.16	11.1	7.18
19	CWC15	1	-0.873	-3.17	2.14
20	CWC15	2	1.25	11.7	7.8
21	CWC15	3	-0.337	0.597	4.52
22	DBNL	1	2.33	19.4	14.9
23	DBNL	2	-0.486	-0.452	4.04
24	DBNL	3	-1.46	-7.31	1.6
25	FAM78A	1	1.35	12.5	8.19
26	FAM78A	2	1.35	12.5	7.87
27	FAM78A	3	-0.616	-1.37	2.85
28	TMEM39A	1	0.0321	3.19	4.16
29	TMEM39A	2	3.89	30.4	16.2
30	TMEM39A	3	0.453	6.16	6.69
31	LXN	1	-0.586	-1.16	3.89
32	LXN	2	1.42	12.9	10.6
33	LXN	3	0.947	9.63	6.08
34	ITPK1	1	-0.0208	2.82	5.02
35	ITPK1	2	0.991	9.94	8.89
36	ITPK1	3	-0.728	-2.16	4.68
37	NAGA	1	1.57	14	11
38	NAGA	2	-0.632	-1.48	2.71
39	NAGA	3	1.01	10	9.24
40	PLEKHG1	1	1.68	14.8	10.2
41	PLEKHG1	2	-0.799	-2.65	3.19
42	PLEKHG1	3	-0.726	-2.14	2.35
43	HMGB1P1	1	0.416	5.9	7.99
44	HMGB1P1	2	-1.05	-4.43	2.09
45	HMGB1P1	3	0.806	8.64	6.55

A portion taken from the entries so far, as a working copy:
no.	gene knocked down	siRNA no.	G2 robust z-score	G2 cells, % of GMNN control	raw share of cells in G2 (%)
9	PPP3CC	3	0.201	4.38	4.82
10	TAMM41	1	-0.838	-2.93	3.07
11	TAMM41	2	3.32	26.4	11.5
12	TAMM41	3	0.16	4.09	4.06
13	CSMD2	1	-0.614	-1.35	3.55
14	CSMD2	2	1.61	14.3	7.59
15	CSMD2	3	0.0223	3.12	2.73
16	ARMC8	1	1.22	11.6	8.77
17	ARMC8	2	2.54	20.9	13
18	ARMC8	3	1.16	11.1	7.18
19	CWC15	1	-0.873	-3.17	2.14

The results go on:
no.	gene knocked down	siRNA no.	G2 robust z-score	G2 cells, % of GMNN control	raw share of cells in G2 (%)
46	PRICKLE3	1	0.0209	3.11	6.71
47	PRICKLE3	2	-0.834	-2.9	2.24
48	PRICKLE3	3	-0.369	0.374	5.5
49	ZNF681	1	-0.52	-0.693	2.85
50	ZNF681	2	-0.275	1.03	3.52
51	ZNF681	3	-1.06	-4.52	1.94
52	SAMD4B	1	-1.51	-7.64	1.59
53	SAMD4B	2	0.481	6.35	6.77
54	SAMD4B	3	-0.0195	2.83	4.04
55	HPN	1	4.04	31.4	16.5
56	HPN	2	7.51 (active)	55.8	24.7
57	HPN	3	-0.74	-2.24	3.08
58	ST18	1	0.304	5.1	5.22
59	ST18	2	-0.82	-2.8	4.74
60	ST18	3	-0.986	-3.97	1.68
61	COLGALT1	1	-0.755	-2.34	3.47
62	COLGALT1	2	-0.709	-2.02	3.42
63	COLGALT1	3	-1.17	-5.25	0.941
64	H3Y2	1	1.41	12.9	8.42
65	H3Y2	2	-0.874	-3.18	1.87
66	H3Y2	3	-0.58	-1.11	3.74
67	ENY2	1	-0.329	0.65	3.24
68	ENY2	2	-0.46	-0.266	4.24
69	ENY2	3	-0.159	1.85	5.34
